Publication doi:10.1101/2023.07.11.548599

Chains of the proteins cited; added tags and fusions are not shown. Lines headed by an entry give the natural chain unless they say otherwise; changes in a name come on top.
UniProt A1ZBF8: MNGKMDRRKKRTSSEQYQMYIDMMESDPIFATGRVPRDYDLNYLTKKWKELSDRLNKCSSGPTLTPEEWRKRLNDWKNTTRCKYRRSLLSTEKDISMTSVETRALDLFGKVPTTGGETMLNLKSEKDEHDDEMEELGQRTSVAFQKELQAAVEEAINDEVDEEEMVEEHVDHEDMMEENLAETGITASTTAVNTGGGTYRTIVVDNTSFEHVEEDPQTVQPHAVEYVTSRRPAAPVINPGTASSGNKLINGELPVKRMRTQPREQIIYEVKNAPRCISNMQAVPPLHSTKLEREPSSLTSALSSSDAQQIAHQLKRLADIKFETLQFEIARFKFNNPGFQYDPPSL
UniProt Q9VGK3: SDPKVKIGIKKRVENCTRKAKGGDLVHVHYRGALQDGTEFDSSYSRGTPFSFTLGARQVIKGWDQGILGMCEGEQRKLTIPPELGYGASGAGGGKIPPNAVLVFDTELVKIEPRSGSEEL
UniProt Q9VCH7: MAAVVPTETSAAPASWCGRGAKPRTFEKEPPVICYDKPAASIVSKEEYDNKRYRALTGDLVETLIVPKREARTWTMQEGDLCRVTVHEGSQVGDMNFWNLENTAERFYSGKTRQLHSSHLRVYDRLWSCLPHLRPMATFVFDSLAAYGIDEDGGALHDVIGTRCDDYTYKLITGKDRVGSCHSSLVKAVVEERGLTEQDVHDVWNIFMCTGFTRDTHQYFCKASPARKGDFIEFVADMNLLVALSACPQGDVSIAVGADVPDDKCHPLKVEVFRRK

B1: CG5504 (protein, UniProt Q27237 63-520)
chain: AKDYYATLGVAKNANGKDIKKAYYQLAKKYHPDTNKEDPDAGRKFQEVSEAYEVLSDEQKRREYDTYGQTAENIGRQGGGFPGGGAGGFGPEGFSQSWQFRSSIDPEELFRKIFGEGNFRTNSFDDFADSKFGFGQAQEMVMDLTFAQAARGVNKDVNVNVVDQCPKCAGTKCEPGTKPGRCQYCNGTGFETVSTGPFVMRSTCRYCQGTRQHIKYPCSECEGKGRTVQRRKVTVPVPAGIENGQTVRMQVGSKELFVTFRVERSDYFRREGADVHTDAAISLAQAVLGGTVRVQGVYEDQWINVEPGTSSHHKIMLRGKGLKRVNAHGHGDHYVHVKITVPSAKKLDKKRLALIEAYAELEEDTPGQIHGIANRKDGSKQATAGASEEPGAGAAAKASAAAAGSGASKPGPGAEKSEGKDQWTDNEKTKAKEGGGSGSGQGDGGGGGFISKIKSMFN
B2: Fancd2 (protein, UniProt Q8MYL1 1-1478)
chain: MYKQFKKRSKKPLNTIDENATIKVPRLAETTTNISVESSSGGSEENIPASQEHTQRFLSQHSVILAATLGRTQSSSRNIATLSRQPNNFFELVLVRAGVQLDQGDSLILACDHVPIVSKLREIFTSASSYTDKMETFKTGLNAAMAPGSKLVQKLLTGCTVDAAGEEQIYQSQNSMFMNFLMIDFMRDACVEVLLNKIEEVAKSDRVIMGKAAIPLPLLPLMLTQLRYLTASHKVEIYSRIEVIFNRATESAKLDIIANAELILDASMHDEFVELLNINYSSTEDLFHMTTVQTLGNLSLSDRTQAKLRVRILDFATSGQCSDAILPHLIRLLLNVLKIDTDDSVRDLIGSLRGIFNWRHTNETEKISASEDSKKSQLELFGFLELGLIRSKKFYQACQRSSASVPAAEFTSFDMILLLLLIHVNEDNSLYIENILRRRIKLEHITVSILEEIRQHYRHILEQHITTLMNILHDFMREKNRIVSDFAKSSYSILFKIFNSIQKNILKKLLELTCDKSSPHLTTMALELLRELQRKSAKDVQNCATLLIPMLDRISDLSLTQTRVAMDLLCHVAFPDPNLSPCLQLQEQVDMVVKKQLINSIDNIKKQGIIGCVQLIDAMARIANNGVDRDEFIASVENVDSLPDGRGKMAANLIIRTEASIGNSTESLALFFEELATVFNQRNEGTSGCELDNQFIAWACDLVTFRFQASFVTENVPETLKGIKLEYQLNINELDDTDANTESDVLNIGINISKLVLSPKVKACDSIYVLAPLFNYVRVLYKHRHQDSLESINALLGCAIVLPSFFEDDNYVSVFENFEAEQQKDILSIYFHTVNWMRVSISAFASQRDPPTRRRVLSRLGELIRIEQRMKPLLARAPVDFVAPPYQFLTNVKLSNQNQKRPGPKPAAKLNATLPEPDLTGNQPSIADFTIKVGQCKTVKTKTDFEQMYGPRERYRPMEVEIIMLLVEQKFVLNHQLEEEQMGEFLGLLELRFLLEDVVQKLEAAVLRHHDSYDADSFRPHLAKPEDFICDLLPCLHEVNNHLITLGEAIDNQLTEVSHVYSNLDLFKDQFCYIKSCFGLCVRLFALYFAWSEWSDKSQEQLLHKSLLKLQPKTQWKRLEKQSVPQLANLTFQYFLKYEKSVLNLSTAVHLHRLLCNLLKLGSLQSDASQPRFQQAEDLRILCGTLLRRKWFHYSGTLDKGGQCNIYLDELVKGFLKKSNAKSQTELLTELVKQCSILNTKDKALTSFPNFKKANFPLLFRGLCEVLIHSLSGQVSVDSRGDKLKLWESAVDLLNGLLSIVQQVEQPRNFGLFLKHSLLFLKLLLQHGMSALESIVREDPERLTRFLHELQKVTRFLHQLCCHSKSIKNTAIISYIPSLRETIETLVFRVKALLAANNCHSAFHMGNMINRDLHGDSIITPRSSFAGEENSDDELPADDTSVDETVLGDDMGITAVSVSTRPSDGSRRSKSSSRSKCF
B3: chrac-16 (protein, UniProt Q9V452 1-140)
chain: MGEPRSQPPVERPPTAETFLPLSRVRTIMKSSMDTGLITNEVLFLMTKCTELFVRHLAGAAYTEEFGQRPGEALKYEHLSQVVNKNKNLEFLLQIVPQKIRVHQFQEMLRLNRSAGSDDDDDDDDDDDEEESESESESDE
B4: Piwi (P-element induced wimpy testes) (protein, UniProt Q9VKM1 1-843)
chain: MADDQGRGRRRPLNEDDSSTSRGSGDGPRVKVFRGSSSGDPRADPRIEASRERRALEEAPRREGGPTERKPWGDQYDYLNTRPAELVSKKGTDGVPVMLQTNFFRLKTKPEWRIVHYHVEFEPSIENPRVRMGVLSNHANLLGSGYLFDGLQLFTTRKFEQEITVLSGKSKLDIEYKISIKFVGFISCAEPRFLQVLNLILRRSMKGLNLELVGRNLFDPRAKIEIREFKMELWPGYETSIRQHEKDILLGTEITHKVMRTETIYDIMRRCSHNPARHQDEVRVNVLDLIVLTDYNNRTYRINDVDFGQTPKSTFSCKGRDISFVEYYLTKYNIRIRDHNQPLLISKNRDKALKTNASELVVLIPELCRVTGLNAEMRSNFQLMRAMSSYTRMNPKQRTDRLRAFNHRLQNTPESVKVLRDWNMELDKNVTEVQGRIIGQQNIVFHNGKVPAGENADWQRHFRDQRMLTTPSDGLDRWAVIAPQRNSHELRTLLDSLYRAASGMGLRIRSPQEFIIYDDRTGTYVRAMDDCVRSDPKLILCLVPNDNAERYSSIKKRGYVDRAVPTQVVTLKTTKNRSLMSIATKIAIQLNCKLGYTPWMIELPLSGLMTIGFDIAKSTRDRKRAYGALIASMDLQQNSTYFSTVTECSAFDVLANTLWPMIAKALRQYQHEHRKLPSRIVFYRDGVSSGSLKQLFEFEVKDIIEKLKTEYARVQLSPPQLAYIVVTRSMNTRFFLNGQNPPPGTIVDDVITLPERYDFYLVSQQVRQGTVSPTSYNVLYSSMGLSPEKMQKLTYKMCHLYYNWSGTTRVPAVCQYAKKLATLVGTNLHSIPQNALEKKFYYL
B5: Maelstrom (Mael) (protein, UniProt Q9VNS0 1-459)
chain: MAPKKHSGFMMFVNEWRNRNAEGRRMTLAQAVSHCGTIWEKMNTQQRGPYNSGGKDANVAQRAKRESSNGHGQVDKAQREATESLMDMKRTIERLVLNAKMSHDLENAKFVFVAFNYFTKALTTDVYVPAEFAACEYSLKEGIRSIYSTMIDPGQIIFGQGSDALLHSSTTHDLPLPPNALGEKNMTKLYRNIVDYLSKCQGKGKTLVVFTPAENITMVKSCFRYLECDDDFRDGGEKIQVFDIQYLLFILKKEVMNVADLNDEKINKFATDAFFKKDFFEFTAGIACQYHEDNDRTKYCTQSMVTRWAYTFTDFMCGDLAITVQPGKHIPAQTKPNYLIISSYASSLDHESSFDSFYSLPGSGVKKESQPEACSLSSSRLSVASSSYKPIDHTSFAANLNEVSEFPSLGMRNSSKHHGIAASAQREWNARNLPTHSRLIRKVSDNDFSVNGADGKLKK

Key:
Test in all cases: affinity purification with mass spectrometry
GFP-D1 (D. melanogaster) [1] = biological target: T1, GFP-D1 (D. melanogaster) (UniProt P22058)
T1 sequence: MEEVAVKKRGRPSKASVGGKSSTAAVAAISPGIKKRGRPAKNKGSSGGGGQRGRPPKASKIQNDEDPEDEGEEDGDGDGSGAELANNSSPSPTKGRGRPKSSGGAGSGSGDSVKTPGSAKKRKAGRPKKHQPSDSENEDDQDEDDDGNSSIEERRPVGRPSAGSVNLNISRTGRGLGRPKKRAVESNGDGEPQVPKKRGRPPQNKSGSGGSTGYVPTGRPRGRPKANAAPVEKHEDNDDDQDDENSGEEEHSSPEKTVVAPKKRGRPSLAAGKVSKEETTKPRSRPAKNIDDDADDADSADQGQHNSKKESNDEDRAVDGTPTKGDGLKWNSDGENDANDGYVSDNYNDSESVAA

[2] = biological target: T2, GFP-Piwi (D. melanogaster) (UniProt Q9VKM1)
T2 sequence: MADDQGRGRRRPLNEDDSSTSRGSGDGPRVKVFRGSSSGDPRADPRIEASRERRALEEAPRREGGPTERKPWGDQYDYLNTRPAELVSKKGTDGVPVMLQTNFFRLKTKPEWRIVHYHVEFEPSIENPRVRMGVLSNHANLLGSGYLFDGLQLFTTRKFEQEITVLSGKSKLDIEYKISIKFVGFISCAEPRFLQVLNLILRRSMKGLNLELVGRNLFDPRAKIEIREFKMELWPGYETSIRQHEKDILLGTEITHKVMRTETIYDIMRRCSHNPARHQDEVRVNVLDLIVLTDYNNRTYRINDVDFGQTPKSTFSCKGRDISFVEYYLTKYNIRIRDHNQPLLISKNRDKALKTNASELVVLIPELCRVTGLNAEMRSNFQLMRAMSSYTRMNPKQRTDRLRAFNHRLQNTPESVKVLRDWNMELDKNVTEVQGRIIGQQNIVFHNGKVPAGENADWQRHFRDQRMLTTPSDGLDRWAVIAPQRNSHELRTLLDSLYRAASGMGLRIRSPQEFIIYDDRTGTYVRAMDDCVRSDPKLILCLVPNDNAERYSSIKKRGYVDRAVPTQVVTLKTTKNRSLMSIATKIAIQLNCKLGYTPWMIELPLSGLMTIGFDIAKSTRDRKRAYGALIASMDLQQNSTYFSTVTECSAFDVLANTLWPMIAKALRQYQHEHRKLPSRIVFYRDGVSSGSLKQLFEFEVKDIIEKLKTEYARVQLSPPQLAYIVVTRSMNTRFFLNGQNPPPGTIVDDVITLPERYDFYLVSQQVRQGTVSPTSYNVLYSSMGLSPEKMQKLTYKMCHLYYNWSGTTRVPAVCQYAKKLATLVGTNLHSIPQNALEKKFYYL

[3] = biological target: GFP-Prod (D. melanogaster) (UniProt A1ZBF8)
GFP-D1 (D. melanogaster) [4] = biological target: T1, GFP-D1 (D. melanogaster); remark: listed apart in the source
[5] = biological target: GFP-Prod (D. melanogaster) (UniProt A1ZBF8); remark: listed apart in the source

Molecule | binding (GFP-D1 (D. melanogaster) [1]) | binding [2] | binding [3] | binding (GFP-D1 (D. melanogaster) [4]) | binding [5]
CG14715 (from UniProt Q9VGK3) | binds | binds | binds | – | –
Female independent of transformer (Fit) (D. melanogaster (endogenous in embryos)) | binds | binds | – | – | –
CG10208 (from UniProt Q9VCH7) | binds | binds | binds | – | –
Ugt35D1 (D. melanogaster (endogenous in embryos)) | binds | binds | – | – | –
B1 | binds | – | binds | binds | binds
B2 | binds | – | binds | – | –
B3 | binds | – | binds | – | –
B4 | – | – | binds | – | –
B5 | binds | – | binds | – | –

Like-named read-outs stand apart in the source and are kept apart here. No constants are given. Whether binding was seen depends on the method and setting. In cells and extracts the contact can be indirect. A yes stands for co-enrichment or nearness to the bait. Other partners may have been found. For part of these data: Where a sequence is shown, tags or fusion partners need not be part of it.
